According to publication PMC12165855:
No constants are given. Whether binding was seen depends on the method and setting. Binding seen in cells or lysates may run through a third protein. A result given as binding can be weak or reduced; the word gives no strength.

By UniProt entry, the sequences of proteins in these tests, tags left out. Where a name states a change or a piece, a line headed by the entry shows the natural chain unless it says otherwise.
UniProt P07711: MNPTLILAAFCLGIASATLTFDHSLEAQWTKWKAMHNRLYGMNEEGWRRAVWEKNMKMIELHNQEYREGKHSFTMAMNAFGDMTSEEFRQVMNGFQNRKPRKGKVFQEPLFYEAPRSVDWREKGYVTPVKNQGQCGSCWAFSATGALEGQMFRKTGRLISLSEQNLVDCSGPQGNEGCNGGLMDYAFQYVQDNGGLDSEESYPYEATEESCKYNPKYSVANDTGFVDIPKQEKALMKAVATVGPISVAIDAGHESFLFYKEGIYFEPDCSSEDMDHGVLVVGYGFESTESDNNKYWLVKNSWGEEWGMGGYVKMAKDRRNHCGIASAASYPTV

Biological target: cathepsin L (human (endogenous in SUM149)) (UniProt P07711)
Test: co-IP; SUM149 nuclear lysate (300 mM NaCl, 0.5% NP40), sonicated, diluted twofold, DNase I digested; 5 µg specific antibody (KDM4C, GRHL2 or CTSL) or isotype IgG overnight at 4 °C, protein A/G magnetic beads, immunoblot with 10% input

binding: binds
B1: grainyhead-like 2 transcription factor (protein, UniProt Q6ISB3 1-625)
chain: MSQESDNNKRLVALVPMPSDPPFNTRRAYTSEDEAWKSYLENPLTAATKAMMSINGDEDSAAALGLLYDYYKVPRDKRLLSVSKASDSQEDQEKRNCLGTSEAQSNLSGGENRVQVLKTVPVNLSLNQDHLENSKREQYSISFPESSAIIPVSGITVVKAEDFTPVFMAPPVHYPRGDGEEQRVVIFEQTQYDVPSLATHSAYLKDDQRSTPDSTYSESFKDAATEKFRSASVGAEEYMYDQTSSGTFQYTLEATKSLRQKQGEGPMTYLNKGQFYAITLSETGDNKCFRHPISKVRSVVMVVFSEDKNRDEQLKYWKYWHSRQHTAKQRVLDIADYKESFNTIGNIEEIAYNAVSFTWDVNEEAKIFITVNCLSTDFSSQKGVKGLPLMIQIDTYSYNNRSNKPIHRAYCQIKVFCDKGAERKIRDEERKQNRKKGKGQASQTQCNSSSDGKLAAIPLQKKSDITYFKTMPDLHSQPVLFIPDVHFANLQRTGQVYYNTDDEREGGSVLVKRMFRPMEEEFGPVPSKQMKEEGTKRVLLYVRKETDDVFDALMLKSPTVKGLMEAISEKYGLPVEKIAKLYKKSKKGILVNMDDNIIEHYSNEDTFILNMESMVEGFKVTLMEI
